Assay results reported in doi:10.1101/2024.01.29.24301801.
Like-named read-outs stand apart in the source and are kept apart here. Results are given in words; binding and its absence hold for the method and conditions named. Binding seen in cells or lysates may run through a third protein. These calls come from enrichment with a bait or labelling near it, and not all partners need be listed.

The chains behind the UniProt entries cited, without tags or fusion partners. Where a name states a change or a piece, a line headed by the entry shows the natural chain unless it says otherwise.
UniProt O15379: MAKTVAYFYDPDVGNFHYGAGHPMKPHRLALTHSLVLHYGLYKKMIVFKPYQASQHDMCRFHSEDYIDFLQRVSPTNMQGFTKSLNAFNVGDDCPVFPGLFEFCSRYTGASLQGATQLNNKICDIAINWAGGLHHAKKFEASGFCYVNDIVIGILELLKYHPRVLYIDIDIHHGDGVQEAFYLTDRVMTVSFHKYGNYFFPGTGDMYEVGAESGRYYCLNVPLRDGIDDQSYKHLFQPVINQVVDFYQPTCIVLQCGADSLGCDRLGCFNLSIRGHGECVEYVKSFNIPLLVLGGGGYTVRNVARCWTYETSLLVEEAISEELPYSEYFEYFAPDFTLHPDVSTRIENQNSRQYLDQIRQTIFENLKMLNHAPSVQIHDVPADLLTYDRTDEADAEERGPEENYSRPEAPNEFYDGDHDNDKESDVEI
UniProt O14818: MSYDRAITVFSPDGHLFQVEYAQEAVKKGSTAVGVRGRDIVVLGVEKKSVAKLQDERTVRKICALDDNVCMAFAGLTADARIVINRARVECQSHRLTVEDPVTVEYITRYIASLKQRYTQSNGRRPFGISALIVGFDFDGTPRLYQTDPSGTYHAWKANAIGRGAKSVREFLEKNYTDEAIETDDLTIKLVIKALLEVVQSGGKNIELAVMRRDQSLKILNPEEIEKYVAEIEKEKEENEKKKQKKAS
UniProt Q13547: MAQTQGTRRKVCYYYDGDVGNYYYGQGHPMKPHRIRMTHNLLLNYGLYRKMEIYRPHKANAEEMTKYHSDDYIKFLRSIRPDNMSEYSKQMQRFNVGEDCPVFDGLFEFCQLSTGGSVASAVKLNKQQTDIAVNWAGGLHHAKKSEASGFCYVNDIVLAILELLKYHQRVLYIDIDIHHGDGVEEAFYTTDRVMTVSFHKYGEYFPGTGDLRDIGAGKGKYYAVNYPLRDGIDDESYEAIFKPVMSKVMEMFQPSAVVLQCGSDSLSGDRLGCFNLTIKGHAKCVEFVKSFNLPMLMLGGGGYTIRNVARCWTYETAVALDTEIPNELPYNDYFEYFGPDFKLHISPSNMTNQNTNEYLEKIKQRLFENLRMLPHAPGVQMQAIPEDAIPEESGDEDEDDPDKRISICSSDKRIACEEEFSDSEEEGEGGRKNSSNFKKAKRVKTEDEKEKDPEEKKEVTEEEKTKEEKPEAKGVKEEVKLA
UniProt P62191: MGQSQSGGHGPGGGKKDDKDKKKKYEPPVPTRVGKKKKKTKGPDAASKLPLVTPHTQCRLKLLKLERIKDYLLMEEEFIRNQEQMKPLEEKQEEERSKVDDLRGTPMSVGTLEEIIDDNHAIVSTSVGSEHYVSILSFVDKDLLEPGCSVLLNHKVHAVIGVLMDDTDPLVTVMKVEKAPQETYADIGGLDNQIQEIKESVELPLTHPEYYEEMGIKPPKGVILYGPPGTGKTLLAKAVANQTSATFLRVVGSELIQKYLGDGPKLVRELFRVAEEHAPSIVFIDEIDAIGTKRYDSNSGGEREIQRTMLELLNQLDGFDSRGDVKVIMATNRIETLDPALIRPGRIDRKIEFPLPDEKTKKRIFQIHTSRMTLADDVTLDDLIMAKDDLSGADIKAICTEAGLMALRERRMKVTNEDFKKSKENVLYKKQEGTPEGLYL
UniProt Q8TAA3: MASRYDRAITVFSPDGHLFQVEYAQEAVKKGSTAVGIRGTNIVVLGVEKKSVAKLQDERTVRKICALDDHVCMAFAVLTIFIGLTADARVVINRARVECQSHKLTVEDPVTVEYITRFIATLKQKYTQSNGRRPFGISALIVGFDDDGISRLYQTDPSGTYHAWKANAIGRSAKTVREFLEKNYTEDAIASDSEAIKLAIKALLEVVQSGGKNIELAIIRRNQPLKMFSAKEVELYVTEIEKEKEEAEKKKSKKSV

Key:
Assay in all cases: affinity purification with mass spectrometry
[1] = biological target: FLAG-tagged HDAC3 G267S variant (HEK293T) (human) (UniProt O15379)
[2] = biological target: FLAG-tagged HDAC3 R359C variant (HEK293T) (human) (UniProt O15379)
[3] = biological target: FLAG-tagged HDAC3 A110T variant (HEK293T) (human) (UniProt O15379)
[4] = biological target: FLAG-tagged HDAC3 L266S variant (HEK293T) (human) (UniProt O15379)
[5] = biological target: FLAG-tagged HDAC3 G267S variant (HEK293T) (human) (UniProt O15379); remark: listed apart in the source
[6] = biological target: FLAG-tagged wild-type HDAC3 (HEK293T) (human) (UniProt O15379)
[7] = biological target: FLAG-tagged HDAC3 R359C variant (HEK293T) (human) (UniProt O15379); remark: listed apart in the source
[8] = biological target: FLAG-tagged HDAC3 A110T variant (HEK293T) (human) (UniProt O15379); remark: listed apart in the source
[9] = biological target: FLAG-tagged HDAC3 L266S variant (HEK293T) (human) (UniProt O15379); remark: listed apart in the source

Measured: binding

PSMA7 (from UniProt O14818 1-248)
binds: [1] | [2] | [3] | [4]

HDAC1 (from UniProt Q13547 1-482)
binds: [1] | [2] | [3] | [4]

PSMC1 (from UniProt P62191 1-440)
binds: [1] | [2] | [3] | [4]

PSMA8 (from UniProt Q8TAA3 1-256)
binds: [1] | [2] | [3] | [4]

B1: AMER1 (protein, UniProt Q5JTC6 1-1135)
chain: METQKDEAAQAKGAAASGSTREQTAEKGAKNKAAEATEGPTSEPSSSGPGRLKKTAMKLFGGKKGICTLPSFFGGGRSKGSGKGSSKKGLSKSKTHDGLSEAAHGPEDVVSEGTGFSLPLPELPCQFPSSQSAHGALETGSRCKTSVAGATEKAVAEKFPSMPKPKKGLKGFFSSIRRHRKSKVTGAEQSEPGAKGPERVRARPHEHVSSAPQVPCFEETFQAPRKENANPQDAPGPKVSPTPEPSPPATEKMACKDPEKPMEACASAHVQPKPAPEASSLEEPHSPETGEKVVAGEVNPPNGPVGDPLSLLFGDVTSLKSFDSLTGCGDIIAEQDMDSMTDSMASGGQRANRDGTKRSSCLVTYQGGGEEMALPDDDDEEEEEEEEVELEEEEEEVKEEEEDDDLEYLWETAQMYPRPNMNLGYHPTTSPGHHGYMLLDPVRSYPGLAPGELLTPQSDQQESAPNSDEGYYDSTTPGFEDDSGEALGLVRRDCLPRDSYSGDALYEFYEPDDSLENSPPGDDCLYDLHGRSSEMFDPFLNFEPFLSSRPPGAMETEEERLVTIQKQLLYWELRREQLEAQEARAREAHAREAHAREAYTREAYGREAYAREAHTWEAHGREARTREAQAREVRCRETQVRETQARQEKPVLEYQMRPLGPSVMGLAAGVSGTSQISHRGITSAFPTTASSEPDWRDFRPLEKRYEGTCSKKDQSTCLMQLFQSDAMFEPDMQEANFGGSPRRAYPTYSPPEDPEEEEVEKEGNATVSFSQALVEFTSNGNLFSSMSCSSDSDSSFTQNLPELPPMVTFDIADVERDGEGKCEENPEFHNDEDLAASLEAFELGYYHKHAFNNYHSRFYQGLPWGVSSLPRYLGLPGLHPRPPPAAMALNRRSRSLDTAETLEMELSNSHLVQGYLESDELQAQQEDSDEEDEEEEEGEWSRDSPLSLYTEPPGAYDWPAWAPCPLPVGPGPAWISPNQLDRPSSQSPYRQATCCIPPMTMSISLSVPESRAPGESGPQLARPSHLHLPMGPCYNLQPQASQSMRARPRDVLLPVDEPSCSSSSGGFSPSPLPQAKPVGITHGIPQLPRVRPEHPQPQPTHYGPSSLDLSKERAEQGASLATSYSSTAMNGNLAK
binds: [5] | [6] | [7] | [8] | [9]

B2: GANAB (protein, UniProt Q14697 29-944)
chain: ITLAVDRSNFKTCEESSFCKRQRSIRPGLSPYRALLDSLQLGPDSLTVHLIHEVTKVLLVLELQGLQKNMTRFRIDELEPRRPRYRVPDVLVADPPIARLSVSGRDENSVELTMAEGPYKIILTARPFRLDLLEDRSLLLSVNARGLLEFEHQRAPRVSQGSKDPAEGDGAQPEETPRDGDKPEETQGKAEKDEPGAWEETFKTHSDSKPYGPMSVGLDFSLPGMEHVYGIPEHADNLRLKVTEGGEPYRLYNLDVFQYELYNPMALYGSVPVLLAHNPHRDLGIFWLNAAETWVDISSNTAGKTLFGKMMDYLQGSGETPQTDVRWMSETGIIDVFLLLGPSISDVFRQYASLTGTQALPPLFSLGYHQSRWNYRDEADVLEVDQGFDDHNLPCDVIWLDIEHADGKRYFTWDPSRFPQPRTMLERLASKRRKLVAIVDPHIKVDSGYRVHEELRNLGLYVKTRDGSDYEGWCWPGSAGYPDFTNPTMRAWWANMFSYDNYEGSAPNLFVWNDMNEPSVFNGPEVTMLKDAQHYGGWEHRDVHNIYGLYVHMATADGLRQRSGGMERPFVLARAFFAGSQRFGAVWTGDNTAEWDHLKISIPMCLSLGLVGLSFCGADVGGFFKNPEPELLVRWYQMGAYQPFFRAHAHLDTGRREPWLLPSQHNDIIRDALGQRYSLLPFWYTLLYQAHREGIPVMRPLWVQYPQDVTTFNIDDQYLLGDALLVHPVSDSGAHGVQVYLPGQGEVWYDIQSYQKHHGPQTLYLPVTLSSIPVFQRGGTIVPRWMRVRRSSECMKDDPITLFVALSPQGTAQGELFLDDGHTFNYQTRQEFLLRRFSFSGNTLVSSSADPEGHFETPIWIERVVIIGAGKPAAVVLQTKGSPESRLSFQHDPETSVLVLRKPGINVASDWSIHLR
binds: [5] | [6] | [7] | [8] | [9]

B3: AKAP8L (protein, UniProt Q9ULX6 1-646)
chain: MSYTGFVQGSETTLQSTYSDTSAQPTCDYGYGTWNSGTNRGYEGYGYGYGYGQDNTTNYGYGMATSHSWEMPSSDTNANTSASGSASADSVLSRINQRLDMVPHLETDMMQGGVYGSGGERYDSYESCDSRAVLSERDLYRSGYDYSELDPEMEMAYEGQYDAYRDQFRMRGNDTFGPRAQGWARDARSGRPMASGYGRMWEDPMGARGQCMSGASRLPSLFSQNIIPEYGMFQGMRGGGAFPGGSRFGFGFGNGMKQMRRTWKTWTTADFRTKKKKRKQGGSPDEPDSKATRTDCSDNSDSDNDEGTEGEATEGLEGTEAVEKGSRVDGEDEEGKEDGREEGKEDPEKGALTTQDENGQTKRKLQAGKKSQDKQKKRQRDRMVERIQFVCSLCKYRTFYEDEMASHLDSKFHKEHFKYVGTKLPKQTADFLQEYVTNKTKKTEELRKTVEDLDGLIQQIYRDQDLTQEIAMEHFVKKVEAAHCAACDLFIPMQFGIIQKHLKTMDHNRNRRLMMEQSKKSSLMVARSILNNKLISKKLERYLKGENPFTDSPEEEKEQEEAEGGALDEGAQGEAAGISEGAEGVPAQPPVPPEPAPGAVSPPPPPPPEEEEEGAVPLLGGALQRQIRGIPGLDVEDDEEGGGGAP
binds: [5] | [6] | [7] | [8] | [9]
